For at least one entry, the source does not settle the construct or the ends of the probe.
How the values were obtained:
[1] = test system: DinJ (Lacticaseibacillus paracasei 4366); experiment: EMSA; conditions: KDapp, Hill n 3.7 ± 0.2, salmon sperm DNA competitor; EMSA: 2 nM DNA, 128 ng salmon sperm DNA in 10 uL, 50 mM Tris-HCl pH 7.5, 50 mM KCl, 5% glycerol, room temperature 10 min, 6% native PAGE in TBE; recombinant protein; residues 1-89; protein details: N-terminal His6 (pET28b); label: DY682 on both primers; probe letters rebuilt from the primers and the genome
[2] = test system: RNA polymerase sigma-70 holoenzyme (Escherichia coli); experiment: EMSA; conditions: 200 nM RNAP, 5 mM Mg2+, 37 C; EMSA: 2 nM DNA, 128 ng salmon sperm DNA in 10 uL, 50 mM Tris-HCl pH 7.5, 50 mM KCl, 5% glycerol, room temperature 10 min, 6% native PAGE in TBE; commercial protein; label: DY682 on both primers; probe letters rebuilt from the primers and the genome
[3] = test system: DinJ (Lacticaseibacillus paracasei 4366); experiment: competition with a labelled probe; conditions: versus 200 nM RNAP, inhibits RNAP binding, partially dissociates at 37 C, 5 mM Mg2+; EMSA: 2 nM DNA, 128 ng salmon sperm DNA in 10 uL, 50 mM Tris-HCl pH 7.5, 50 mM KCl, 5% glycerol, room temperature 10 min, 6% native PAGE in TBE; recombinant protein; residues 1-89; protein details: N-terminal His6 (pET28b); label: DY682 on both primers; probe letters rebuilt from the primers and the genome

With “GATCAACACGAATATTCAAGCGAGTTTCTTTCTTTGTGGCTGCCATTGCTAACCACTCCTTCCTATCTAACAACCTAATTATATCACGAATTATCCCAATGTAAACACAGCGGGATAACATCATGTGAGATGAATTCAACCGGATTTCTGGCTTTTTCTTCGCACAAATGGAAGCGTAACTGCCATCAGACGTT (double strand) [194-bp dinJ-yafQ promoter fragment]” the Kd [1] was 61 nM, the binding result [2] was “binds” and the binding result [3] was “binds”.

Reference: article PMC9592637, “Functional characterization and transcriptional repression by Lacticaseibacillus paracasei DinJ-YafQ” (Applied Microbiology and Biotechnology, 2022)
